Results from paper PMC12037410, “Pharmacological targeting of BMAL1 modulates circadian and immune pathways” (Nature Chemical Biology, 2025).
No constants are given. Whether binding was seen depends on the method and setting. In cells and extracts the contact can be indirect. Some results given as binding are weak or reduced against the parent protein; the word gives no strength. Sequences can lack the tags named with a protein.

Amino acid sequences for entries named in this document (tags omitted).
UniProt O00327: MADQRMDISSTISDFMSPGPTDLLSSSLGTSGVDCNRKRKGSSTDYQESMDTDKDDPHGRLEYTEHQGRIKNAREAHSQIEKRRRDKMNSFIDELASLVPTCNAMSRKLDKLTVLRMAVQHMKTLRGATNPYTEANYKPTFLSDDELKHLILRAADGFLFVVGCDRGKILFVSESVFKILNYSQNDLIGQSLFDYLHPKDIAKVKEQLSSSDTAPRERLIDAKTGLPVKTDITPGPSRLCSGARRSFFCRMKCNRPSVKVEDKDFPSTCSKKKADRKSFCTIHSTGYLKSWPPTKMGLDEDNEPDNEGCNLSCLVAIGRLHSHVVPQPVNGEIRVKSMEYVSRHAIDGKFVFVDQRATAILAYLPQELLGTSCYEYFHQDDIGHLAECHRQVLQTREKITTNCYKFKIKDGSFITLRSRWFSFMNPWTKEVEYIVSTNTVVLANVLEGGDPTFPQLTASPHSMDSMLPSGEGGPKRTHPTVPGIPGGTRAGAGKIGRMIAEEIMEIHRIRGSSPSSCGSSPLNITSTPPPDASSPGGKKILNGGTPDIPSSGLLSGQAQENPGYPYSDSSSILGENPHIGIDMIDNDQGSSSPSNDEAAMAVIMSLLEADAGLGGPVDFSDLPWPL

Target: T1, Full-length human CLOCK with a C-terminal Myc or Flag tag (human) (UniProt O15516)
T1 sequence: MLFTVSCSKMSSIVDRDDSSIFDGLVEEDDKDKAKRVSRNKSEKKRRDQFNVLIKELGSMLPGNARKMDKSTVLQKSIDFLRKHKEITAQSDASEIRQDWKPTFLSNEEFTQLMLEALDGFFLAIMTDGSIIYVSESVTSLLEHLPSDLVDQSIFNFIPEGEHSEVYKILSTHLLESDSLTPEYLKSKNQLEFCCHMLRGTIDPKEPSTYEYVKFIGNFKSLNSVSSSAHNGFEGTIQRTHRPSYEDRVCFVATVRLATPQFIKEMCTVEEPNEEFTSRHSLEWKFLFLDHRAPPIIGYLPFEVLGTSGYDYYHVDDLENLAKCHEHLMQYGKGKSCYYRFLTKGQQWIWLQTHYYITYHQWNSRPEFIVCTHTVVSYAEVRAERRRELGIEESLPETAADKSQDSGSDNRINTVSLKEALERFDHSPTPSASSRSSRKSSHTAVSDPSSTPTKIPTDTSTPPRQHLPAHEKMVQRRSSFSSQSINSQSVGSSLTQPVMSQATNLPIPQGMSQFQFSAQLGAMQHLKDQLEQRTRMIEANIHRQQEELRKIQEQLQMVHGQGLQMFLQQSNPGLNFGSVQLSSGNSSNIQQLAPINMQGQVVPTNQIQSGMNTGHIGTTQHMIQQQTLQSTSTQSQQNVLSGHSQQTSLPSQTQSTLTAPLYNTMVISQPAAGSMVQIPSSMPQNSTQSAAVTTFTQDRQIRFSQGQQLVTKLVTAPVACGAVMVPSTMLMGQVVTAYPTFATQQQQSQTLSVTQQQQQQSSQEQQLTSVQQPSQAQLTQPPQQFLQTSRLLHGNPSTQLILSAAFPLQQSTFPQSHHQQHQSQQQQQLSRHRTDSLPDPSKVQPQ
Assay: co-IP; Myc- and Flag-tagged BMAL1 and CLOCK transiently expressed in U2OS cells treated with 0.1% DMSO or 1-100 uM CCM for about 2.5 h; lysate by sonication in 20 mM HEPES pH 7.5, 100 mM NaCl, 1 mM EDTA, 3% glycerol, 0.1% Tween 20, 0.05% Triton X-100, 1 mM DTT; magnetic Flag beads, 2.5 h in a cold room; western blot

Full-length human BMAL1 with a C-terminal Myc or Flag tag (from UniProt O00327 1-626)
binding: binds
